Measured values reported in paper doi:10.1101/719815 (bioRxiv, 2019).
Where two headings read alike, the source gives them in different places. Results are given in words; binding and its absence hold for the method and conditions named. Binding seen in cells or lysates may run through a third protein. Some entries that bind do so weakly or less than the wild type.

Columns and labels:
Assay in all cases: split reporter
Cdc24KKCRU (yeast) = target: T1, Cdc24KKCRU (yeast) (UniProt P11433)
T1 sequence: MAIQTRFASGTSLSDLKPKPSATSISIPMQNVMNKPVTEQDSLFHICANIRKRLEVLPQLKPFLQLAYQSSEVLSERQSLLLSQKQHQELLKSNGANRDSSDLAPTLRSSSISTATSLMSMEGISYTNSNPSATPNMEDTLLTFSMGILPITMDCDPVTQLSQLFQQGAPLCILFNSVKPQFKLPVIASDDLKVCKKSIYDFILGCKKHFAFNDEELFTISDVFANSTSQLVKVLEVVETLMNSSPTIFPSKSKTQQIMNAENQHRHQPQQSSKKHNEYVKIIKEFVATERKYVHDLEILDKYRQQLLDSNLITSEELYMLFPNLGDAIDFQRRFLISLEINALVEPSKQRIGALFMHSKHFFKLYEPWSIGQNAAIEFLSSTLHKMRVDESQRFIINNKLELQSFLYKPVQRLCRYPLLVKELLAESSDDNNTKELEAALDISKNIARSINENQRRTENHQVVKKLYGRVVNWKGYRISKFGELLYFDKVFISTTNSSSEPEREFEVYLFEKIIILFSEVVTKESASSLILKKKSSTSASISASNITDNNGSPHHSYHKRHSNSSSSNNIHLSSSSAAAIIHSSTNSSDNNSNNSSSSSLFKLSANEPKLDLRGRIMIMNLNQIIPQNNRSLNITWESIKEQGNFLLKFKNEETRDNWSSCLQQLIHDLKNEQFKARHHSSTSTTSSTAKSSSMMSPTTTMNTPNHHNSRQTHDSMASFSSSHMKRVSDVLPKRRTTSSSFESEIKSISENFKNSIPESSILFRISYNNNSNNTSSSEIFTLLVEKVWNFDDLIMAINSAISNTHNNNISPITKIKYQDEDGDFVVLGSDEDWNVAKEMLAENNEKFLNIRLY

[1] = target: T2, Cdc24_(428-854)CRU (yeast) (UniProt P11433)
T2 sequence: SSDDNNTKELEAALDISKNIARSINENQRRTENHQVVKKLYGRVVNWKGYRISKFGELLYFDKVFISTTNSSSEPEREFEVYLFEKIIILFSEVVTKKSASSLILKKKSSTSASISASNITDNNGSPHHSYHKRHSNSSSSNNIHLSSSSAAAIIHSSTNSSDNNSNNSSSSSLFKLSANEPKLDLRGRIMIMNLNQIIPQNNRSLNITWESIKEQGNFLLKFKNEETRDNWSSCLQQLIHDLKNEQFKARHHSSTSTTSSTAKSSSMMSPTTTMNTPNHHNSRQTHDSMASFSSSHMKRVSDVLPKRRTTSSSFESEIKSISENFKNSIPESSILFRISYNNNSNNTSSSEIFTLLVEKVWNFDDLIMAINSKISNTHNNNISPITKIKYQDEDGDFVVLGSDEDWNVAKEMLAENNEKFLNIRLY

[2] = target: T3, Cdc24_(428-854D820A) CRU (yeast) (UniProt P11433)
T3 sequence: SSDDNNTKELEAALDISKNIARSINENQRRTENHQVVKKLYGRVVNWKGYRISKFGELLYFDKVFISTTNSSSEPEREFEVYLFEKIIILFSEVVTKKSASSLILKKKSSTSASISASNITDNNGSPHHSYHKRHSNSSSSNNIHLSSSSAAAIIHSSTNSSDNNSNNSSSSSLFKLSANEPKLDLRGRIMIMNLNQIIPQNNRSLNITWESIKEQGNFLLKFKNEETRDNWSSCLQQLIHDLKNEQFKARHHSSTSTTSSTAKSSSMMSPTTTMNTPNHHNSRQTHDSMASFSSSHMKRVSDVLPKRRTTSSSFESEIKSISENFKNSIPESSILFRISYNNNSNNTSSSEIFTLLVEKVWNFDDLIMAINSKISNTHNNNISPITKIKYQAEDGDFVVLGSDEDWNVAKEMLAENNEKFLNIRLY

[3] = target: T2, Cdc24_(428-854)CRU (yeast); remark: listed apart in the source
[4] = target: T4, Cdc24 extended by the Cub-RUra3 module (Cdc24CRU) (yeast) (UniProt P11433)
T4 sequence: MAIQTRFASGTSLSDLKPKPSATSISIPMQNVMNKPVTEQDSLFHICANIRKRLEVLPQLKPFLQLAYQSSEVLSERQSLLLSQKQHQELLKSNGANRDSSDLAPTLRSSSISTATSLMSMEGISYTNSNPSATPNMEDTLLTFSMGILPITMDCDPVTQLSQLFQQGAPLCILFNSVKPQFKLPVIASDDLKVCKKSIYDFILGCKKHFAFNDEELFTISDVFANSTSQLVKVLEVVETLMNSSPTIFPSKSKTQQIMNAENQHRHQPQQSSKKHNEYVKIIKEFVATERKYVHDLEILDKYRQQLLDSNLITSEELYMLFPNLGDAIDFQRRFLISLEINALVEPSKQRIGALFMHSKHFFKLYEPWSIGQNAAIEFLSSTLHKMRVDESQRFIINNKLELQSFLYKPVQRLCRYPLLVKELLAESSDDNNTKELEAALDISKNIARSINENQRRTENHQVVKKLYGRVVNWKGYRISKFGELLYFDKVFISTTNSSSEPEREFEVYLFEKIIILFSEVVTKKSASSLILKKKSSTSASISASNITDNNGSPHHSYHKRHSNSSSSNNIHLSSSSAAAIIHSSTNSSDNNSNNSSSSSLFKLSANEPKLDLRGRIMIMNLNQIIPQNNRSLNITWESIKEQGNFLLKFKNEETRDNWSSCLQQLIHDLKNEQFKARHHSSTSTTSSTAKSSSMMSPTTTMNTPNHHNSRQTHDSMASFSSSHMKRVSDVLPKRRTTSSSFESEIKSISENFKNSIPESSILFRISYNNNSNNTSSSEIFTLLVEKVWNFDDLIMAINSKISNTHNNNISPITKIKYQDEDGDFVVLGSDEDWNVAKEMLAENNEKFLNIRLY

- binding (Cdc24KKCRU (yeast)): binds weakly
- binding [1]: binds
- binding [2]: binds
- binding [3]: binds
- binding [4]: binds
B1: Nub-Cdc11 (protein, UniProt P32458 1-415)
chain: MSGIIDASSALRKRKHLKRGITFTVMIVGQSGSGRSTFINTLCGQQVVDTSTTILLPTDTSTEIDLQLREETVELEDDEGVKIQLNIIDTPGFGDSLDNSPSFEIISDYIRHQYDEILLEESRVRRNPRFKDGRVHCCLYLINPTGHGLKEIDVEFIRQLGSLVNIIPVISKSDSLTRDELKLNKKLIMEDIDRWNLPIYNFPFDEDEISDEDYETNMYLRTLLPFAIIGSNEVYEMGGDVGTIRGRKYPWGILDVEDSSISDFVILRNALLISHLHDLKNYTHEILYERYRTEALSGESVAAESIRPNLTKLNGSSSSSTTTRRNTNPFKQSNNINNDVLNPASDMHGQSTGENNETYMTREEQIRLEEERLKAFEERVQQELLLKRQELLQREKELREIEARLEKEAKIKQEE
